No constants are given. Whether binding was seen depends on the method and setting. In cells and extracts the contact can be indirect. Some binding calls cover weakened binding; strength is not graded here.
Key:
[1] = target: B7-H1 fused to Rluc8 or YPet (mouse) (UniProt Q9EP73); experiment: FRET or BRET; BRET donor saturation in live transfected HeLa cells: constant Rluc8 fusion (donor), increasing YPet fusion (acceptor), coelenterazine H 5 uM
[2] = target: B7.1 fused to Rluc8 or YPet (mouse) (UniProt Q00609); experiment: as above

Chains of the proteins cited; added tags and fusions are not shown. Residues count along the entry.
UniProt Q9EP73, residues 19-290: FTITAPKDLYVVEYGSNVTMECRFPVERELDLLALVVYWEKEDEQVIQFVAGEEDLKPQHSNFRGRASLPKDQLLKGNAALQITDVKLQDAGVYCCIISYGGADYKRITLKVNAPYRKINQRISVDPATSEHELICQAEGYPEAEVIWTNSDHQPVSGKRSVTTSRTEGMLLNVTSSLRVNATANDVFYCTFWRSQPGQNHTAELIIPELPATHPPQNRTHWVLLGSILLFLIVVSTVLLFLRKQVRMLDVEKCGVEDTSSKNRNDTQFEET
UniProt Q00609, residues 38-306: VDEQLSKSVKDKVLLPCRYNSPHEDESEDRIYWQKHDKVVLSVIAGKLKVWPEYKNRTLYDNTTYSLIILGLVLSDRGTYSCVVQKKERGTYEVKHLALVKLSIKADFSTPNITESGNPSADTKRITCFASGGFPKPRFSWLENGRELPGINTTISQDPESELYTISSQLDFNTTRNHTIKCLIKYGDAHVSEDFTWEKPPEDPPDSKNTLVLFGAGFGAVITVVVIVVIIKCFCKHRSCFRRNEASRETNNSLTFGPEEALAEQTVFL
UniProt P06213, residues 28-1382: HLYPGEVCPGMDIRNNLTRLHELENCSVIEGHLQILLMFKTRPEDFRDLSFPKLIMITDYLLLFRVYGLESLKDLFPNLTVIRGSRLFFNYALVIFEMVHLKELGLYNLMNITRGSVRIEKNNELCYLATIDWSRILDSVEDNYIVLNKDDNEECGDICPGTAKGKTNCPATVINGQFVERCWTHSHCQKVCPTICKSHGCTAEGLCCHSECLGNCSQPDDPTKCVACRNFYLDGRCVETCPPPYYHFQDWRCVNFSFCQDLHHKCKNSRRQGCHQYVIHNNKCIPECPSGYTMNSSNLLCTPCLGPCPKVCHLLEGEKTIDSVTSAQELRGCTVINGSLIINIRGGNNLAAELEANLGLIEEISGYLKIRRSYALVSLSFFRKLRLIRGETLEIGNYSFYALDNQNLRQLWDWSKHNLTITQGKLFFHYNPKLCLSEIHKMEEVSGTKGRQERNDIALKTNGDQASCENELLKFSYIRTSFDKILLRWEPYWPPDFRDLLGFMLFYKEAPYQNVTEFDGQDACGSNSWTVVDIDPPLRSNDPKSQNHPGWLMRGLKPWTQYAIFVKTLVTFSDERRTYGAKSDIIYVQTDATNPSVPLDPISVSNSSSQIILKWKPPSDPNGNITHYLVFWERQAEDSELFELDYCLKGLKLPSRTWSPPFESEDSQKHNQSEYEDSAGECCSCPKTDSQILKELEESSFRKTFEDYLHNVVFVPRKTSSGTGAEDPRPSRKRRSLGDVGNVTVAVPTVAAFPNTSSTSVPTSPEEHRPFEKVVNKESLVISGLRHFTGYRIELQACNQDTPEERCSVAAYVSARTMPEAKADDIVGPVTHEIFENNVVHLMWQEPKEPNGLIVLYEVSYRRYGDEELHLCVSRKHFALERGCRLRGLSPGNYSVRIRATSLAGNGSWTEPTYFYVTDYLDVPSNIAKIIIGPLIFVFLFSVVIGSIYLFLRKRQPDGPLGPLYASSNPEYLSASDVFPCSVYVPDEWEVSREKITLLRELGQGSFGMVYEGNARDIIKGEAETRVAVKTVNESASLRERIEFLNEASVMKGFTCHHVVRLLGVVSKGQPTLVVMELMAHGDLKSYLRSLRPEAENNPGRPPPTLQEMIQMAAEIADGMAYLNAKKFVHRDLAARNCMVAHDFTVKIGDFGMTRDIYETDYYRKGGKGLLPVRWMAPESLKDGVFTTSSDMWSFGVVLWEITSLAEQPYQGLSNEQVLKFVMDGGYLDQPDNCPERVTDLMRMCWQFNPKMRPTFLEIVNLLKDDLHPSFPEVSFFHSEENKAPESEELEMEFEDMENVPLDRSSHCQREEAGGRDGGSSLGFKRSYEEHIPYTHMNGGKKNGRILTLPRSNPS

| Substance | binding [1] | binding [2] |
| --- | --- | --- |
| B7-H1 fused to Rluc8 or YPet (from UniProt Q9EP73 19-290) (receptor) | binds |  |
| B7.1 fused to Rluc8 or YPet (from UniProt Q00609 38-306) (receptor) |  | binds |
| insulin receptor fused to YPet (from UniProt P06213 28-1382) | no binding | no binding |

— paper PMC3180432
